Measurements: the supplement of paper PMC8728848
This is one part of the list.

Assays:
Assay in all cases: glycan array binding signal (z-score within array); higher = stronger binding
Settings in all cases: glycan notation: IUPAC condensed, linker removed
Glc(b1-6)Glc = biological target: Glc(b1-6)Glc
How it was run: (§1)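 Negative Z-scores can be read as non-binding. The Z-score is calculated within each array and then averaged across arrays of one protein sequence at different concentrations or buffers and across linkers. Arrays, 3228 in all, were curated from the Consortium for Functional Glycomics database and kept only where the protein sequence was available.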

GlcA(b1-3)Gal = biological target: GlcA(b1-3)Gal
How it was run: as §1

GlcA(b1-3)GlcNAc = biological target: GlcA(b1-3)GlcNAc
How it was run: as §1

GlcA(b1-6)Gal = biological target: GlcA(b1-6)Gal
How it was run: as §1

[1] = biological target: GlcA3S(b1-3)Gal(b1-4)GlcNAc(b1-2)Man
How it was run: as §1

[2] = biological target: GlcA3S(b1-3)Gal(b1-4)GlcNAc(b1-3)Gal(b1-4)Glc
How it was run: as §1

[3] = biological target: GlcNAc(a1-3)Gal(b1-4)GlcNAc
How it was run: as §1

[4] = biological target: GlcNAc(a1-4)Gal(b1-3)GlcNAc
How it was run: as §1

[5] = biological target: GlcNAc(a1-4)Gal(b1-4)GalNAc
How it was run: as §1

[6] = biological target: GlcNAc(a1-4)Gal(b1-4)GlcNAc
How it was run: as §1

[7] = biological target: GlcNAc(a1-4)Gal(b1-4)GlcNAc(b1-3)Gal(b1-4)Glc
How it was run: as §1

[8] = biological target: GlcNAc(a1-4)Gal(b1-4)GlcNAc(b1-3)Gal(b1-4)GlcNAc
How it was run: as §1

[9] = biological target: GlcNAc(a1-4)Gal(b1-4)GlcNAc(b1-3)Gal(b1-4)GlcNAc(b1-3)Gal(b1-4)GlcNAc
How it was run: as §1

[10] = biological target: GlcNAc(a1-4)Gal(b1-4)GlcNAc(b1-3)Gal(b1-4)[Fuc(a1-3)]GlcNAc(b1-3)Gal(b1-4)[Fuc(a1-3)]GlcNAc
How it was run: as §1

[11] = biological target: GlcNAc(a1-6)Gal(b1-4)GlcNAc
How it was run: as §1

[12] = biological target: GlcNAc(b1-2)Gal(b1-3)GalNAc
How it was run: as §1

[13] = biological target: GlcNAc(b1-2)Man(a1-3)[GlcNAc(b1-2)Man(a1-6)]Man(b1-4)GlcNAc(b1-4)GlcNAc
How it was run: as §1

[14] = biological target: GlcNAc(b1-2)Man(a1-3)[GlcNAc(b1-2)Man(a1-6)]Man(b1-4)GlcNAc(b1-4)[Fuc(a1-6)]GlcNAc
How it was run: as §1

[15] = biological target: GlcNAc(b1-2)Man(a1-3)[GlcNAc(b1-4)][GlcNAc(b1-2)Man(a1-6)]Man(b1-4)GlcNAc(b1-4)GlcNAc
How it was run: as §1

[16] = biological target: GlcNAc(b1-2)Man(a1-3)[GlcNAc(b1-4)][GlcNAc(b1-2)Man(a1-6)]Man(b1-4)GlcNAc(b1-4)[Fuc(a1-6)]GlcNAc
How it was run: as §1

[17] = biological target: GlcNAc(b1-2)[GlcNAc(b1-4)]Man(a1-3)[GlcNAc(b1-2)Man(a1-6)]Man(b1-4)GlcNAc(b1-4)GlcNAc
How it was run: as §1

[18] = biological target: GlcNAc(b1-2)[GlcNAc(b1-4)]Man(a1-3)[GlcNAc(b1-4)][GlcNAc(b1-2)Man(a1-6)]Man(b1-4)GlcNAc(b1-4)GlcNAc
How it was run: as §1

[19] = biological target: GlcNAc(b1-2)[GlcNAc(b1-4)]Man(a1-3)[GlcNAc(b1-4)][GlcNAc(b1-2)[GlcNAc(b1-6)]Man(a1-6)]Man(b1-4)GlcNAc(b1-4)GlcNAc
How it was run: as §1

[20] = biological target: GlcNAc(b1-2)[GlcNAc(b1-4)]Man(a1-3)[GlcNAc(b1-4)][GlcNAc(b1-2)[GlcNAc(b1-6)]Man(a1-6)]Man(b1-4)GlcNAc(b1-4)[Fuc(a1-6)]GlcNAc
How it was run: as §1

[21] = biological target: GlcNAc(b1-2)[GlcNAc(b1-6)]Man(a1-6)[GlcNAc(b1-2)Man(a1-3)]Man(b1-4)GlcNAc(b1-4)GlcNAc
How it was run: as §1

[22] = biological target: GlcNAc(b1-2)[GlcNAc(b1-6)]Man(a1-6)[GlcNAc(b1-2)Man(a1-3)]Man(b1-4)GlcNAc(b1-4)[Fuc(a1-6)]GlcNAc
How it was run: as §1

[23] = biological target: GlcNAc(b1-2)[GlcNAc(b1-6)]Man(a1-6)[GlcNAc(b1-4)][GlcNAc(b1-2)Man(a1-3)]Man(b1-4)GlcNAc(b1-4)GlcNAc
How it was run: as §1

GlcNAc(b1-3)Fuc = biological target: GlcNAc(b1-3)Fuc
How it was run: as §1

GlcNAc(b1-3)Gal = biological target: GlcNAc(b1-3)Gal
How it was run: as §1

[24] = biological target: GlcNAc(b1-3)Gal(b1-3)GalNAc
How it was run: as §1

GlcNAc(b1-3)Gal(b1-4)Glc = biological target: GlcNAc(b1-3)Gal(b1-4)Glc
How it was run: as §1

[25] = biological target: GlcNAc(b1-3)Gal(b1-4)GlcNAc
How it was run: as §1

[26] = biological target: GlcNAc(b1-3)Gal(b1-4)GlcNAc(b1-2)Man(a1-3)[GlcNAc(b1-3)Gal(b1-4)GlcNAc(b1-2)Man(a1-6)]Man(b1-4)GlcNAc(b1-4)GlcNAc
How it was run: as §1

[27] = biological target: GlcNAc(b1-3)Gal(b1-4)GlcNAc(b1-2)Man(a1-3)[GlcNAc(b1-3)Gal(b1-4)GlcNAc(b1-2)Man(a1-6)]Man(b1-4)GlcNAc(b1-4)[Fuc(a1-6)]GlcNAc
How it was run: as §1

[28] = biological target: GlcNAc(b1-3)Gal(b1-4)GlcNAc(b1-2)[GlcNAc(b1-3)Gal(b1-4)GlcNAc(b1-6)]Man(a1-6)[GlcNAc(b1-3)Gal(b1-4)GlcNAc(b1-2)Man(a1-3)]Man(b1-4)GlcNAc(b1-4)GlcNAc
How it was run: as §1

[29] = biological target: GlcNAc(b1-3)Gal(b1-4)GlcNAc(b1-3)Gal(b1-4)GlcNAc
How it was run: as §1

[30] = biological target: GlcNAc(b1-3)Gal(b1-4)GlcNAc(b1-3)Gal(b1-4)GlcNAc(b1-2)Man(a1-3)[GlcNAc(b1-3)Gal(b1-4)GlcNAc(b1-3)Gal(b1-4)GlcNAc(b1-2)Man(a1-6)]Man(b1-4)GlcNAc(b1-4)GlcNAc
How it was run: as §1

B1: PX15642A-pgi-501-20-501 (Parabacteroides gingivalis) (protein)
chain: CELDRDPEGKDFQQPYTSFVQTKQNRDGLYALLRNTENPRMHFYQELQSDMYCTTITDGNSLAPFVNWDLGILNDHGRADEDEVSGIAGYYFVYNRLNQQANAFVNNTEAALQNQVYKNSTEIANAKSFLAEGKVLQALAIWRLMDRFSFHESVTEVNSGAKDLGVILLKEYNPGYIGPRATKAQCYDYILSRLSEAIEVLPENRESVLYVSRDYAYALRARIYLALGEYGKAAADAKMVVDKYPLIGAADASEFENIYRSDANNPEIIFRGFASATLGSFTATTLNGAAPAGKDIKYNPSAVPFQWVVDLYENEDFRKSVYIAKVVKKDKGYLVNKFLEDKAYRDVQDKPNLKVGARYFSVAEVYLILVESALQTGDTPTAEKYLKALSKARGAEVSVVNMEALQAERTRELIGEGSRLRDMVRWSIPNNHDAFETQPGLEGFANTTPLKAQAPVGFYAYTWEFPQRDRQTNPQLIKNWPI
Q: How did the “glycan array binding signal (z-score)” value (Glc(b1-6)Glc) turn out when B1 was run?
A: The value was -0.254.

Q: What about the “glycan array binding signal (z-score)” value (GlcA(b1-3)Gal) of the same binder?
A: The value was -0.935.

Q: And the “glycan array binding signal (z-score)” value (GlcA(b1-3)GlcNAc)?
A: The value was 0.443.

Q: And the “glycan array binding signal (z-score)” value (GlcA(b1-6)Gal)?
A: Its value is -0.172.

Q: What about the “glycan array binding signal (z-score)” value [1] of the same binder?
A: Its value is 0.025.

Q: What about the “glycan array binding signal (z-score)” value [2] of the same binder?
A: The value was -0.158.

Q: And the “glycan array binding signal (z-score)” value [3]?
A: Its value is -0.268.

Q: And the “glycan array binding signal (z-score)” value [4]?
A: The value was -0.595.

Q: And the “glycan array binding signal (z-score)” value [5]?
A: The value was -0.137.

Q: And the “glycan array binding signal (z-score)” value [6]?
A: Its value is -0.517.

Q: And the “glycan array binding signal (z-score)” value [7]?
A: Its value is 0.142.

Q: What about the “glycan array binding signal (z-score)” value [8] of the same binder?
A: Its value is -0.768.

Q: And the “glycan array binding signal (z-score)” value [9]?
A: The value was -0.663.

Q: What about the “glycan array binding signal (z-score)” value [10] of the same binder?
A: The value was 0.402.

Q: And the “glycan array binding signal (z-score)” value [11]?
A: The value was -0.112.

Q: What about the “glycan array binding signal (z-score)” value [12] of the same binder?
A: Its value is -0.131.

Q: And the “glycan array binding signal (z-score)” value [13]?
A: Its value is -0.55.

Q: What about the “glycan array binding signal (z-score)” value [14] of the same binder?
A: Its value is 0.116.

Q: What about the “glycan array binding signal (z-score)” value [15] of the same binder?
A: Its value is -0.514.

Q: And the “glycan array binding signal (z-score)” value [16]?
A: Its value is -0.108.

Q: And the “glycan array binding signal (z-score)” value [17]?
A: The value was 0.13.

Q: What about the “glycan array binding signal (z-score)” value [18] of the same binder?
A: Its value is -0.243.

Q: What about the “glycan array binding signal (z-score)” value [19] of the same binder?
A: The value was -0.203.

Q: What about the “glycan array binding signal (z-score)” value [20] of the same binder?
A: Its value is -0.313.

Q: And the “glycan array binding signal (z-score)” value [21]?
A: The value was 0.522.

Q: What about the “glycan array binding signal (z-score)” value [22] of the same binder?
A: The value was -0.176.

Q: What about the “glycan array binding signal (z-score)” value [23] of the same binder?
A: The value was -0.076.

Q: And the “glycan array binding signal (z-score)” value (GlcNAc(b1-3)Fuc)?
A: Its value is -0.579.

Q: What about the “glycan array binding signal (z-score)” value (GlcNAc(b1-3)Gal) of the same binder?
A: Its value is 0.024.

Q: And the “glycan array binding signal (z-score)” value [24]?
A: Its value is 0.701.

Q: And the “glycan array binding signal (z-score)” value (GlcNAc(b1-3)Gal(b1-4)Glc)?
A: Its value is -0.356.

Q: And the “glycan array binding signal (z-score)” value [25]?
A: Its value is -0.835.

Q: What about the “glycan array binding signal (z-score)” value [26] of the same binder?
A: The value was -0.48.

Q: And the “glycan array binding signal (z-score)” value [27]?
A: Its value is 0.664.

Q: What about the “glycan array binding signal (z-score)” value [28] of the same binder?
A: Its value is 0.074.

Q: What about the “glycan array binding signal (z-score)” value [29] of the same binder?
A: The value was 0.772.

Q: What about the “glycan array binding signal (z-score)” value [30] of the same binder?
A: The value was 2.32.
